Assay results as given in patent publication US20250281538A1 (US Dept. of Health and Human Services, published 2025).
These are yes or no findings as the source states them, for the method shown. Some entries that bind do so weakly or less than the wild type.

T1: GPC2 antigen (UniProt Q8N158 24-553, limits assumed)
T1 construct: also called glypican-2
T1 sequence (looked up): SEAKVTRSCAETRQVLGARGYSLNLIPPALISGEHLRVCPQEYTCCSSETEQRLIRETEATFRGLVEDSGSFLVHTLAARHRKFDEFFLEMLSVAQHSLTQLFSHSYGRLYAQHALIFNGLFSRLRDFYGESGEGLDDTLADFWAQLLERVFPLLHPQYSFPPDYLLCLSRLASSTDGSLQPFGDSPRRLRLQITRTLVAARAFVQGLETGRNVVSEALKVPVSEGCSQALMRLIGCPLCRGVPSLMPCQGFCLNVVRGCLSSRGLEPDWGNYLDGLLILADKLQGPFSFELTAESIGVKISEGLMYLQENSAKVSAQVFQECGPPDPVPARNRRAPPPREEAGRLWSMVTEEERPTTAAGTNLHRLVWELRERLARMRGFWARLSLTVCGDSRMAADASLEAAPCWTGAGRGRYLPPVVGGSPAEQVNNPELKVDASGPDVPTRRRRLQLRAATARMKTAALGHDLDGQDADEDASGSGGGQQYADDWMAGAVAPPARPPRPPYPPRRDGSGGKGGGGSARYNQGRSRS

B1: ART-CT3-CT3 AbTCR+CSR (other)
chain 1: ENVLTQSPAIMSASLGEKVTMSCRASSSVNYIYWYQQKSDASPKLWIYYTSNLAPGVPARFSGSGSGNSYSLTISSMEGEDAATYYCQQFSSSPSTFGTGTKLELKRSRGGGGSGGGGSGGGGSLEMAEVQLQQSGPELVKPGASVKMSCKASRFTFTDYNIHWVKQSPGKTLEWIGYINPNNGDIFYKQKFNGKATLTINKSSNTAYMELRSLTSEDSAVYYCVRSSNIRYTFDRFFDVWGTGTTVTVSSEQKLISEEDLAAATGAPPLGTQPDCNPTPENGEAPASTSPTQSLLVDSQASKTLPIPTSAPVALSSTGKPVLDAGPVLFWVILVLVVVVGSSAFLLCHRRACRKRIRQKLHLCYPVQTSQPKLELVDSRPRRSSTQLRSGASVTEPVAEERGLMSQPLMETCHSVGAAYLESLPLQDASPAGGPSSPRDLPEPRVSTEHTNNKIEKIYIMKADTVIVGTVKAELPEGRGLAGPAEPELEEELEADHTPHYPEQETEPPLGSCSDVMLSVEEEGKEDPLPTAASGK
chain 2: EVQLQQSGPELVKPGASVKMSCKASRFTFTDYNIHWVKQSPGKTLEWIGYINPNNGDIFYKQKFNGKATLTINKSSNTAYMELRSLTSEDSAVYYCVRSSNIRYTFDRFFDVWGTGTTVTVSSASTKGPSVFPLAPSSKSTSGGTAALGCLVKDYFPEPVTVSWNSGALTSGVHTFPAVLQSSGLYSLSSVVTVPSSSLGTQTYICNVNHKPSNTKVDKRVEPKSCEVKTDSTDHVKPKETENTKQPSKSCHKPKAIVHTEKVNMMSLTVLGLRMLFAKTVAVNFLLTAKLFFL
chain 3: ENVLTQSPAIMSASLGEKVTMSCRASSSVNYIYWYQQKSDASPKLWIYYTSNLAPGVPARFSGSGSGNSYSLTISSMEGEDAATYYCQQFSSSPSTFGTGTKLELKRTVAAPSVFIFPPSDEQLKSGTASVVCLLNNFYPREAKVQWKVDNALQSGNSQESVTEQDSKDSTYSLSSTLTLSKADYEKHKVYACEVTHQGLSSPVTKSFNRGECPIKTDVITMDPKDNCSKDANDTLLLQLTNTSAYYMYLLLLLKSVVYFAIITCCLLRRTAFCCNGEKS
notes: AbTCR heterodimer and CSR are expressed together on one cell
B2: ART-hCT3-1-hCT3-1 AbTCR+CSR (other)
chain 1: DVVMTQSPLSLPVTPGEPASISCRASSSVNYIYWYLQKPGQSPQLWIYYTSNLAPGVPDRFSGSGSGTDFTLKISRVEAEDVGVYYCQQFSSSPSTFGQGTKLEIKRSRGGGGSGGGGSGGGGSLEMAQVQLVQSGAEVKKPGASVKVSCKASRFTFTDYNIHWVRQAPGQGLEWIGYINPNNGDIFYKQKFNGRVTLTADKSTSTAYMELSSLTSEDTAVYYCVRSSNIRYTFDRFFDVWGQGTLVTVSSEQKLISEEDLAAATGAPPLGTQPDCNPTPENGEAPASTSPTQSLLVDSQASKTLPIPTSAPVALSSTGKPVLDAGPVLFWVILVLVVVVGSSAFLLCHRRACRKRIRQKLHLCYPVQTSQPKLELVDSRPRRSSTQLRSGASVTEPVAEERGLMSQPLMETCHSVGAAYLESLPLQDASPAGGPSSPRDLPEPRVSTEHTNNKIEKIYIMKADTVIVGTVKAELPEGRGLAGPAEPELEEELEADHTPHYPEQETEPPLGSCSDVMLSVEEEGKEDPLPTAASGK
chain 2: QVQLVQSGAEVKKPGASVKVSCKASRFTFTDYNIHWVRQAPGQGLEWIGYINPNNGDIFYKQKFNGRVTLTADKSTSTAYMELSSLTSEDTAVYYCVRSSNIRYTFDRFFDVWGQGTLVTVSSASTKGPSVFPLAPSSKSTSGGTAALGCLVKDYFPEPVTVSWNSGALTSGVHTFPAVLQSSGLYSLSSVVTVPSSSLGTQTYICNVNHKPSNTKVDKRVEPKSCEVKTDSTDHVKPKETENTKQPSKSCHKPKAIVHTEKVNMMSLTVLGLRMLFAKTVAVNFLLTAKLFFL
chain 3: DVVMTQSPLSLPVTPGEPASISCRASSSVNYIYWYLQKPGQSPQLWIYYTSNLAPGVPDRFSGSGSGTDFTLKISRVEAEDVGVYYCQQFSSSPSTFGQGTKLEIKRTVAAPSVFIFPPSDEQLKSGTASVVCLLNNFYPREAKVQWKVDNALQSGNSQESVTEQDSKDSTYSLSSTLTLSKADYEKHKVYACEVTHQGLSSPVTKSFNRGECPIKTDVITMDPKDNCSKDANDTLLLQLTNTSAYYMYLLLLLKSVVYFAIITCCLLRRTAFCCNGEKS
notes: also called ART-hCT3-hCT3; hCT3 AbTCR+CSR
B3: hCT3 CAR (hCT3-1 CD28HTM) (other)
VH: QVQLVQSGAEVKKPGASVKVSCKASRFTFTDYNIHWVRQAPGQGLEWIGYINPNNGDIFYKQKFNGRVTLTADKSTSTAYMELSSLTSEDTAVYYCVRSSNIRYTFDRFFDVWGQGTLVTVSS
VL: DVVMTQSPLSLPVTPGEPASISCRASSSVNYIYWYLQKPGQSPQLWIYYTSNLAPGVPDRFSGSGSGTDFTLKISRVEAEDVGVYYCQQFSSSPSTFGQGTKLEIK
notes: only hCT3-1 VH and VL are tied to the antibody; also called hCT3-CD28HTM
B4: CT3 CAR (CT3-CD28HTM) (other)
VH: EVQLQQSGPELVKPGASVKMSCKASRFTFTDYNIHWVKQSPGKTLEWIGYINPNNGDIFYKQKFNGKATLTINKSSNTAYMELRSLTSEDSAVYYCVRSSNIRYTFDRFFDVWGTGTTVTVSS
VL: ENVLTQSPAIMSASLGEKVTMSCRASSSVNYIYWYQQKSDASPKLWIYYTSNLAPGVPARFSGSGSGNSYSLTISSMEGEDAATYYCQQFSSSPSTFGTGTKLELK
notes: Only the CT3 VH and VL are tied to the antibody

Target: T1, GPC2 antigen
Test: flow cytometry; Jurkat T cells expressing the construct, GPC2 antigen in solution

How did the binding turn out when B1 was run?
The binding was “binds”.

How did the binding turn out when B2 was run?
Its binding is “binds”.

How did the binding turn out when B3 was run?
The binding was “binds”.

B4 was tested. Which binding did it give?
The binding was “binds”.
